Assay results published in paper PMC5769602, “Functional assays for the assessment of the pathogenicity of variants of GOSR2, an ER-to-Golgi SNARE involved in progressive myoclonus epilepsies” (Disease Models & Mechanisms, 2017).
Substitutions are numbered along the chain they refer to. Results are given in words; binding and its absence hold for the method and conditions named. Binding can be weak; no strength is given.

B1: Bos1 151-221 p.Arg196del (domain or fragment, Saccharomyces cerevisiae, UniProt P25385 151-221, looked up)
chain: LYQGLQKEQSVFERGNAQLDYILEMGQQSFENIVEQNKILSKVQDMSNGLRTLGVSEQTITSINKRVFKD
notes: Bos1, Saccharomyces cerevisiae, SNARE domain, residues 151-221, with arginine 196 deleted (orthologous to GOSR2 p.Lys164del); also called Bos1 p.Arg196del; source: E. coli BL21 (DE3), purified (Ni2+-NTA, ion exchange)
B2: Bos1 151-221 wild type (SNARE domain) (domain or fragment, Saccharomyces cerevisiae, UniProt P25385 151-221, looked up)
chain: LYQGLQKEQSVFERGNAQLDYILEMGQQSFENIVEQNKILSKVQDRMSNGLRTLGVSEQTITSINKRVFKD
notes: Bos1, Saccharomyces cerevisiae, SNARE domain, residues 151-221; Forms homo-oligomers of unstated size as the isolated SNARE domain; also called Bos1 wt; wild-type Bos1; source: E. coli BL21 (DE3), purified (Ni2+-NTA, ion exchange)
B3: Bos1 151-221 p.Gly176Asp (domain or fragment, Saccharomyces cerevisiae, UniProt P25385 151-221, looked up)
chain: B2 chain with G26D
notes: Bos1, Saccharomyces cerevisiae, SNARE domain, residues 151-221, with the designed Gly176Asp mutation; also called Bos1 p.Gly176Asp; source: E. coli BL21 (DE3), purified (Ni2+-NTA, ion exchange)
B4: Bos1 151-221 p.Gly176Trp (domain or fragment, Saccharomyces cerevisiae, UniProt P25385 151-221, looked up)
chain: B2 chain with G26W
notes: Bos1, Saccharomyces cerevisiae, SNARE domain, residues 151-221, with Gly176Trp (orthologous to GOSR2 p.Gly144Trp); also called Bos1 p.Gly176Trp; source: E. coli BL21 (DE3), purified (Ni2+-NTA, ion exchange)

These binders were tested against Sec22 126-186 (SNARE domain) (yeast) (assay: SEC; quaternary SNARE complexes assembled from equal amounts of purified Sed5 (211-320), Bet1 (1-118), Sec22 (126-186) and one Bos1 (151-221) variant, incubated overnight; Superdex 75, PBS with 200 mM NaCl; both purified).

**Q.** With B1 as the binder, how does the binding read?
**A.** binds

**Q.** For B2, which binding is on record?
**A.** binds

**Q.** B3 was tested. Which binding did it give?
**A.** binds

**Q.** For B4, which binding is on record?
**A.** binds
